# Several values for one entry are separate records, joined by “and”; a condition that tells them apart may be missing. Equal entries are not always repeated. Hit rate of the full screen: of about 320,000 compounds, about 22,000 (6.9%) were called active. The shares of active, inactive and inconclusive entries below differ from those in the screen. Calls follow the shape of the dose curve; as a rule, active = well fitted inhibition curve with a large enough effect; inconclusive = small, poorly fitted or top-dose-only effect, or another doubt; inactive = no such curve, though single readings can be large or run the other way. Potencies beside an inconclusive call are fits to weak or partial responses and may not hold up.
# Test: Primary qHTS for delayed death inhibitors of the malarial parasite plastid, 96 hour incubation
# Conditions: P. falciparum luciferase reporter growth; series mostly up to 28.7 µM; activity change, negative = inhibition: at the top concentration
# Text: The goal of this screen is to discover new antimalarial compounds that act by inhibiting the development of the apicoplast in the malarial parasite Plasmodium falciparum. The biochemical processes that make this organelle essential for erythrocytic stage parasites are not well understood. However, antibiotics such as azithromycin and tetracycline, which target the apicoplast translational machinery, have a potent antimalarial effect.
# We have developed a cell-based assay that measures parasite growth based on the expression of an integrated copy of a firefly luciferase reporter. To detect small molecules that cause this "delayed death" phenotype, erythrocytes infected with the luciferase-expressing parasites were incubated with compounds for either one or two generations, corresponding to 48 and 96 hours, respectively. Compounds that inhibit parasite growth in the second generation, but not the first, should be enriched in antimalarials that target the apicoplast. Growth inhibition is detected by a decrease in luciferase activity.
# Assay Provider: David Fidock and Eric Ekland, Columbia University
# Keywords: NIH Roadmap, MLPCN, MLI, MLSMR, qHTS, NCGC, qHTS, malaria, luciferase, viability
# Four microliters of infected erythrocytes (2% hematocrit, 0.05% parasitemia final concentration) in culture medium were dispensed and the plates incubated for 96 hours at 37 C in 5% CO2. Two microliters of luciferase detection reagent was added and luminescence was detected by a ViewLux (PerkinElmer) reader.
# % is scaled to controls: 0 for no effect and ±100 for the full control effect; potency is read from the fitted curve at half-maximal effect.
Structure (SMILES),Potency,"activity change, negative = inhibition"
O=C(Nc1cccc(NC(=O)c2cncc(Br)c2)c1)c1cncc(Br)c1,"inconclusive: 0.329 µM [inhibitor, full curve, poor fit]",–
COC(=O)c1ccc(N2CCN(CCNC(=O)Nc3ccc(OC)cc3)CC2)cc1,–,inactive: -13.3%
Cc1ccn2c(=O)nc(SCC(=O)NCc3ccc(F)cc3)nc2c1,–,inactive: 0.481%
CC1CCCCN1S(=O)(=O)c1ccc(C(=O)N(CCCN(C)C)c2nc3cc4c(cc3s2)OCO4)cc1 (centres undefined),"inconclusive: 13.1 µM [inhibitor, single point]",–
CC(NC(=S)NCCCN1CCOCC1)C1CC2CCC1C2 (centres undefined),"inconclusive: 2.62 µM [inhibitor, full curve, poor fit]",–
Cc1ccc(C(=O)NC2CCN(CC(=O)NCc3cccs3)CC2)cc1,"inconclusive: 1.31 µM [inhibitor, full curve]",–
CC(C)Cn1c(=O)c(C(=O)Nc2ccccc2S(N)(=O)=O)c(O)c2ccccc21,–,inactive: -3.1%
Nc1nc(N)nc(Cc2ccccc2O)n1,"inconclusive: 4.15 µM [inhibitor, single point]",–
Oc1c(Cl)cc(Cl)cc1C=Nc1ccc(N2CCOCC2)cc1,"inconclusive: 18.5 µM [inhibitor, single point]",–
Cc1cc(C)cc(NC(=S)N2CCN(C(=O)c3ccco3)CC2)c1,"inconclusive: 18.5 µM [inhibitor, single point]",–
O=C(Cn1cnc(S(=O)(=O)N2CCCC2)c1)Nc1cccc(F)c1,"inconclusive: 18.5 µM [inhibitor, single point]",–
CCn1nnc(-c2ccccc2NS(=O)(=O)c2ccc(S(=O)(=O)N(C)C3CCCCC3)cc2)n1,"inconclusive: 18.5 µM [inhibitor, single point]",–
O=C(Nc1ccc(N2CCN(C(=O)c3ccccc3)CC2)cc1)c1cccnc1,–,inactive: 17.8%
Cc1c(C(=O)Nc2ccc3oc(-c4cccnc4)nc3c2)oc2ccccc12,"inconclusive: 3.29 µM [inhibitor, full curve]",–
O=C1NC(=S)N(c2ccc(F)cc2)C(=O)/C1=C\c1ccoc1,"inconclusive: 18.5 µM [inhibitor, single point]",–
Cc1cc2nc(SCC(=O)Nc3ccccc3C(=O)O)[nH]c2cc1C,"inconclusive: 7.38 µM [inhibitor, partial curve, poor fit]",–
COc1ccc(CCNC(=O)c2nnn(-c3ccccc3OC)c2N)cc1OC,"inconclusive: 11.7 µM [inhibitor, single point]",–
CC(C)CCN1CCN(Cc2cccn2-c2ccc(Cl)cn2)CC1CCO (centres undefined),–,inactive: 0.427%
COc1cccc(C(C(=O)NCC2CCCO2)N(C(=O)Cn2nnc3ccccc32)c2ccc(NC(C)=O)cc2)c1OC (centres undefined),–,inactive: 17%
Cc1ccc(S(=O)(=O)N2CCC(C(=O)NCCC3=CCCCC3)CC2)c(C)c1,"inconclusive: 10.4 µM [inhibitor, single point]",–
O=C(N/C(C(=O)N1CCOCC1)=C(\Sc1ncccn1)c1ccccc1)c1ccccc1,–,inactive: -1.38%
Cc1nc2ccc(NC(=O)c3cccs3)cc2c(=O)n1Cc1ccc(Cl)cc1,active: 3.29 µM,–
Cc1cc(C)c(S(=O)(=O)N2CCCc3ccccc32)c(C)c1,"inconclusive: 18.5 µM [inhibitor, single point]",–

Structure (SMILES),Potency,"activity change, negative = inhibition"
Cc1cccc(NC(=S)N2N=CCC2c2ccccc2)c1 (centres undefined),"inconclusive: 4.15 µM [inhibitor, single point]",–
COc1cc2c(cc1OC)C13CCN4CC5=CCOC6CC(=O)N2C1C6C5CC43 (centres undefined) (tested in a mixture with another compound),"inconclusive: 11.7 µM [inhibitor, partial curve, poor fit]",–
CNC(=S)N(C)c1ccccc1,"inconclusive: 18.5 µM [inhibitor, single point]",–
CN(C)CCN(CC1CCCN(Cc2ccccc2F)C1)C(=O)c1ccc(Cl)cc1 (centres undefined),active: 13.1 µM,–
N#CCC(=O)Nc1ccc(C(=O)OCC(=O)NCCCc2ccccc2)cc1,active: 1.17 µM,–
CCCCn1c(N)c(N(Cc2ccccc2OC)C(=O)CCSC)c(=O)[nH]c1=O,"inconclusive: 14.7 µM [inhibitor, partial curve, poor fit]",–
Cc1c(C#N)c(N)nc(Cl)c1C#N,–,inactive: -27.9%
COc1ccc2cc(C(=O)N3CCN(c4cccc(C)c4C)CC3)[nH]c2c1,"inconclusive: 11.7 µM [inhibitor, single point]",–
O=C(Nc1ccccc1)c1cccc(S(=O)(=O)Oc2ccc([N+](=O)[O-])cc2)c1,"inconclusive: 0.0037 µM [inhibitor, full curve]",–
O=C(O)c1ccc(-n2nc(C(F)(F)F)c3c2CCCC3)cc1,"inactive and inconclusive: 1.47 µM [inhibitor, single point]",–
CCOC(=O)C1CCCN(C(=O)c2ccc(CNc3c(N4CCC(C)CC4)c(=O)c3=O)cc2)C1 (centres undefined),"inconclusive: 18.5 µM [inhibitor, single point]",–
CCCCCCCOc1ccc(C2CC(=O)N(C)C2=O)cc1 (centres undefined),"inconclusive: 2.94 µM [inhibitor, single point]",–
CC(=O)Nc1ccc(NC(=O)c2cccc(-c3cc4ccccc4oc3=O)c2)cc1,–,inactive: 87.2%
CCOC(=O)c1ccc(NC(=O)CSc2nnc(CNC(=O)c3c(F)cccc3Cl)o2)cc1,"inconclusive: 0.0738 µM [inhibitor, full curve, poor fit]",–
COc1ccc(S(=O)(=O)NCC(=O)N(CC2CCCO2)C(C(=O)NC2CCCC2)C(C)C)cc1 (centres undefined),–,inactive: -16.7%
Cc1nc(NCCN2CCOCC2)c2nnn(Cc3c(F)cccc3Cl)c2n1,"inconclusive: 13.1 µM [inhibitor, single point]",–
COc1ccc(C(=O)Oc2ccc(=O)n(-c3ccccc3)n2)cc1,–,inactive: 0.383%
O=C(CCNS(=O)(=O)c1ccccc1)NCCSc1ccc(Br)cc1,"inconclusive: 18.5 µM [inhibitor, single point]",–
Cc1cccc(N=C2NC(=O)/C(=C/c3cccn3C)S2)c1,"inconclusive: 5.86 µM [inhibitor, partial curve]",–
CCOC(=O)N1CCN(c2nc(-c3cccs3)nc3ccccc23)CC1,"inconclusive: 0.0041 µM [inhibitor, full curve, poor fit]",–
CCCCn1c(=O)[nH]c(=O)c2c1nc(-c1ccc(-c3ccc(F)cc3)o1)n2C,–,inactive: 25.9%
COc1cccc(-c2csc(NC(=O)Nc3ccccc3)n2)c1,"inconclusive: 5.22 µM [inhibitor, partial curve, poor fit]",–
O=S(=O)(Nc1ccc(-n2cnnn2)cc1)c1cccs1,–,inactive: 47%

Structure (SMILES),Potency,"activity change, negative = inhibition"
COc1ccc(C[C@@H]2CN3C(=NC[C@@H]3C)N2C[C@H](C)NC(=O)c2ccc(C)c(Br)c2)cc1,active: 2.62 µM,–
COC(=O)c1c(-c2ccc(SC)cc2)sc2ccccc12,active: 5.86 µM,–
COc1ccc(Br)cc1CN1CCCC(C(=O)N2CCCCC2)C1 (centres undefined),"inconclusive: 13.1 µM [inhibitor, partial curve, poor fit]",–
CCOc1ccc(NC(=O)NC2CCS(=O)(=O)C2)cc1 (centres undefined),–,inactive: -13%
Cc1ccc2[nH]c(CN3CCC(CO)(CC4CCCCO4)CC3)c(C)c2c1 (centres undefined),"inconclusive: 13.1 µM [inhibitor, single point]",–
CC(C)Oc1ccc(C(=O)Nc2ccc(NC(=O)c3ccco3)c(Cl)c2)cc1,–,inactive: -11.5%
CN(CC(=O)Nc1cccc(F)c1)C(=O)c1cc(-c2ccccc2)nc2ccccc12,"inconclusive: 7.38 µM [inhibitor, partial curve, poor fit]",–
CCOCCCNCc1ccc(OC)c(OC)c1,"inconclusive: 18.5 µM [inhibitor, single point]",–
CC(C)(C)C(=O)NC1(C(F)(F)F)NC(=O)N(c2ccc(F)cc2)C1=O (centres undefined),active: 11.7 µM,–
O=C1C2C(C(=O)N1c1nccs1)C1C=CC2C12CC2 (centres undefined),"inconclusive: 5.22 µM [inhibitor, partial curve]",–
CC(CCc1ccccc1)NC(=O)c1nnc(Cc2ccc(F)cc2)o1 (centres undefined),"inconclusive: 18.5 µM [inhibitor, single point]",–
Cc1ccc(N(C(C)C(=O)N2CCOCC2)S(C)(=O)=O)cc1C (centres undefined),active: 9.28 µM,–
COc1ccc(N2CCN(CC(O)COc3ccc(C)cc3C)CC2)cc1 (centres undefined),–,inactive: -16.2%
CC(=O)N1c2ccccc2NC2=C(C(=O)CCC2)C1c1ccc(F)cc1 (centres undefined),"inconclusive: 2.62 µM [inhibitor, partial curve, poor fit]",–
CCCn1c(Cc2ccccc2)nnc1SCC(=O)N1CCOCC1,"inconclusive: 18.5 µM [inhibitor, single point]",–
CCCCCn1c2nc3ccccc3nc2c2c(=O)n(CC(C)C)cnc21,active: 2.94 µM,–
CC(=O)N1C(=O)C2(C(C#N)=C(N)Oc3c2c(C)nn3-c2ccccc2)c2ccccc21 (centres undefined),"inconclusive: 8.28 µM [inhibitor, single point]",–
CS(=O)(=O)N(CC(=O)N1CCCCCC1)c1cccc(F)c1,"inconclusive: 18.5 µM [inhibitor, single point]",–
COCC(C)NC(=O)c1oc2c(c1C)C1(CCC2)SCCS1 (centres undefined),"inconclusive: 18.5 µM [inhibitor, single point]",–
Fc1ccc(N2CCN(c3cnc4ccccc4n3)CC2)cc1,–,inactive: 207%
Cc1ccccc1OCC(=O)NCCS(=O)(=O)N1CCN(c2ccc(F)cc2)CC1,–,inactive: 51.9%
Cc1oc(-c2cccs2)nc1CN1CCC(C(=O)N2CCCC2)CC1,"inconclusive: 10.4 µM [inhibitor, single point]",–
CCc1ccc(C(=O)N2CCN(c3ccc(NC(=O)c4ccco4)cc3)CC2)cc1,–,inactive: 25.1%

# Full records from above. Order of values: Potency | activity change, negative = inhibition
# CCCCn1c(=O)[nH]c(=O)c2c1nc(-c1ccc(-c3ccc(F)cc3)o1)n2C in the list: – | inactive: 25.9%
# COc1ccc(CCNC(=O)c2nnn(-c3ccccc3OC)c2N)cc1OC in the list: inconclusive: 11.7 µM [inhibitor, single point] | –
# N#CCC(=O)Nc1ccc(C(=O)OCC(=O)NCCCc2ccccc2)cc1 in the list: active: 1.17 µM | –
# Cc1ccc(S(=O)(=O)N2CCC(C(=O)NCCC3=CCCCC3)CC2)c(C)c1 in the list: inconclusive: 10.4 µM [inhibitor, single point] | –

# From PubChem BioAssay AID504834 (National Center for Advancing Translational Sciences (NCATS), 2011)
